# Experimental data: PubChem BioAssay AID743121 (NCATS, 2013)
# Test: 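Knock-downs that sensitise breast cancer cells to camptothecin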 (primary screen)
# Cells: MDA-MB-231 cells, a human breast cancer line
# Reagent: single siRNA against human genes, 20 nM siRNA (0.8 pmol per well)
# Time to read-out: 120 h (drug added 48 h after transfection, read 72 h later)
# Challenge: camptothecin 20 nM (about EC30) for 72 h; vehicle 0.1% DMSO in parallel plates
# Read-out: 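CellTiter-Glo ATP signal, scaled to control siRNA as percent viability; sensitisation given as log2 of untreated divided by camptothecin-treated viability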
# Reading the numbers: log2 vehicle/camptothecin viability: higher = stronger sensitisation to camptothecin; viability with camptothecin and viability without drug: higher = more viable cells
# Rule for the call: 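Active genes have an RSA gene-level p-value below 0.001, computed from the ratios of their separate siRNAs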
# This is an unselected part of about 26,000 reagents. 167 of all reagents (0.63%) were called active. 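Calls are per gene from RSA p-values that are not deposited; an individual active-marked siRNA can sensitise only weakly.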
gene,PubChem SID,log2 vehicle/camptothecin viability,viability with camptothecin (% of control),viability without drug (% of control),call
TAAR9,SID164570424,0.229,57.7,67.6,inactive
TAAR9,SID164570425,-0.453,33.9,24.8,inactive
TAAR9,SID164570427,-0.0442,79.5,77.1,inactive
TAAR9,SID164570428,0.461,19.3,26.6,inactive
ILK,SID164371518,-0.317,21.4,17.2,inactive
ILK,SID164371519,-0.371,95,73.5,inactive
ILK,SID164371520,0.129,88.3,96.6,inactive
ILK,SID164371526,-0.0986,87.4,81.6,inactive
NECTIN3,SID164457917,-0.184,94.2,82.9,inactive
NECTIN3,SID164457920,-0.153,56.9,51.1,inactive
NECTIN3,SID164457926,-0.289,80.5,65.9,inactive
LAP3,SID164471520,-0.0393,14.7,14.3,inactive
LAP3,SID164471522,-0.212,64.7,55.8,inactive
LAP3,SID164471524,-0.159,106,94.5,inactive
UCK2,SID164393489,0.131,48.9,53.5,inactive
UCK2,SID164393491,-0.215,85.5,73.7,inactive
UCK2,SID164393492,-0.68,106,66.1,inactive
UCK2,SID164393495,0.128,94,103,inactive
ADAMTS15,SID164580879,0.311,76.5,94.9,inactive
ADAMTS15,SID164580880,-0.423,81.8,61,inactive
ADAMTS15,SID164580881,-0.285,74.2,60.9,inactive
ADAMTS15,SID164580883,0.22,47.4,55.1,inactive
OGDH,SID164378829,-0.00945,18.8,18.7,inactive
OGDH,SID164378833,-0.551,53.4,36.4,inactive
OGDH,SID164378834,0.152,27.1,30.1,inactive
KSR1,SID164400234,-0.134,84.6,77.1,inactive
KSR1,SID164400235,-0.238,94.8,80.3,inactive
KSR1,SID164400237,-0.412,81.8,61.5,inactive
KSR1,SID164400238,1.57,23.6,70.1,inactive

A stretch of the results above, as a working copy:
gene,PubChem SID,log2 vehicle/camptothecin viability,viability with camptothecin (% of control),viability without drug (% of control),call
UCK2,SID164393492,-0.68,106,66.1,inactive
UCK2,SID164393495,0.128,94,103,inactive
